Results are given in words; binding and its absence hold for the method and conditions named. Binding seen in cells or lysates may run through a third protein. Some binding calls cover weakened binding; strength is not graded here.
How the values were obtained:
[1] = biological target: GST-LN(1–329) (Kaposi's sarcoma-associated herpesvirus (KSHV)) (UniProt Q9QR71); assay: pull-down; GST fusion of LANA 1–329 (WT or ΔSIM) with nuclear extracts, western blot with specific antibodies; data not shown; only the target purified
[2] = biological target: His-SUMO-2 recombinant protein (UniProt P61956); assay: pull-down; 35S-labeled in vitro-translated LANA incubated with His-SUMO-1 or His-SUMO-2 on Nickel-agarose (Ni-NTA) beads, 3 hrs at 4°C in NETN binding buffer; autoradiography; only the target purified
[3] = biological target: full length LANA with myc tag (Kaposi's sarcoma-associated herpesvirus (KSHV)) (UniProt Q9QR71); assay: co-IP; HEK293 co-transfected with FLAG-KAP1 (wild type or lysine mutants) and myc-tagged LANA in the presence of HA-SUMO-1, HA-SUMO-2 or vector alone

By UniProt entry, the sequences of proteins in these tests, tags left out. Where a name states a change or a piece, a line headed by the entry shows the natural chain unless it says otherwise. Residues count along the entry.
UniProt Q9QR71: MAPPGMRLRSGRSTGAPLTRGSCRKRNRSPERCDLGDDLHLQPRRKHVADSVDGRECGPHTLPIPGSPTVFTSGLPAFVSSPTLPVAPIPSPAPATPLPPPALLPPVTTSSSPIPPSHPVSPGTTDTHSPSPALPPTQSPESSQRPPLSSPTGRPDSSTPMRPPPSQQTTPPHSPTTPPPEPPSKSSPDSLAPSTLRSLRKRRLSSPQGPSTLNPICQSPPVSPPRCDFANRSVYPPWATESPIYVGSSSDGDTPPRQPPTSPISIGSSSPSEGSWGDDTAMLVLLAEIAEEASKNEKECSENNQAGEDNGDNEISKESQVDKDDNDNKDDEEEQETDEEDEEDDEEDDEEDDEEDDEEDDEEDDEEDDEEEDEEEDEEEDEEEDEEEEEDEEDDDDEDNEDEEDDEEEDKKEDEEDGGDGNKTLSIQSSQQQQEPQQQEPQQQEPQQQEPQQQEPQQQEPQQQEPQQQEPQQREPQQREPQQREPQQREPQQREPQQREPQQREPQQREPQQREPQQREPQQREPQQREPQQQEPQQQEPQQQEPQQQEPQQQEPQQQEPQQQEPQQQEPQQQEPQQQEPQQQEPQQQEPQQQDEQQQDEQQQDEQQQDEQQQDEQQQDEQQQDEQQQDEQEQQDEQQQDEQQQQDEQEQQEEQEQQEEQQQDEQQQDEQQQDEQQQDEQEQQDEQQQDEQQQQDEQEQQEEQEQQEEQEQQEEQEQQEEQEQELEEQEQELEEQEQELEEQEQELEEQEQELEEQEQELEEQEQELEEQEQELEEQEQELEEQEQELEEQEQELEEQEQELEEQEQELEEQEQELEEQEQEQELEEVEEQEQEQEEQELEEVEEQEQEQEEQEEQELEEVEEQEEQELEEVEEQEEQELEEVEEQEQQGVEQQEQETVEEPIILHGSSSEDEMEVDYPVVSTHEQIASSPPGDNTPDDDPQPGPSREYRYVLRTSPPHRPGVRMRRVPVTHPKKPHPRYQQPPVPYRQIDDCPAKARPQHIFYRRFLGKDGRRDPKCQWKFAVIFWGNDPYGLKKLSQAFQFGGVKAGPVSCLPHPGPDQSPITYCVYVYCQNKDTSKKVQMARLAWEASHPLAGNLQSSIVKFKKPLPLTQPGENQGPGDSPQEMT
GST-LN(1–329) (Kaposi's sarcoma-associated herpesvirus (KSHV)): residues 1-329 of Q9QR71
UniProt P61956: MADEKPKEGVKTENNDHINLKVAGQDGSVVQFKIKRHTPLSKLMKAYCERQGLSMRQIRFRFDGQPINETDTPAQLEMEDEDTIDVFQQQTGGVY
UniProt Q92793: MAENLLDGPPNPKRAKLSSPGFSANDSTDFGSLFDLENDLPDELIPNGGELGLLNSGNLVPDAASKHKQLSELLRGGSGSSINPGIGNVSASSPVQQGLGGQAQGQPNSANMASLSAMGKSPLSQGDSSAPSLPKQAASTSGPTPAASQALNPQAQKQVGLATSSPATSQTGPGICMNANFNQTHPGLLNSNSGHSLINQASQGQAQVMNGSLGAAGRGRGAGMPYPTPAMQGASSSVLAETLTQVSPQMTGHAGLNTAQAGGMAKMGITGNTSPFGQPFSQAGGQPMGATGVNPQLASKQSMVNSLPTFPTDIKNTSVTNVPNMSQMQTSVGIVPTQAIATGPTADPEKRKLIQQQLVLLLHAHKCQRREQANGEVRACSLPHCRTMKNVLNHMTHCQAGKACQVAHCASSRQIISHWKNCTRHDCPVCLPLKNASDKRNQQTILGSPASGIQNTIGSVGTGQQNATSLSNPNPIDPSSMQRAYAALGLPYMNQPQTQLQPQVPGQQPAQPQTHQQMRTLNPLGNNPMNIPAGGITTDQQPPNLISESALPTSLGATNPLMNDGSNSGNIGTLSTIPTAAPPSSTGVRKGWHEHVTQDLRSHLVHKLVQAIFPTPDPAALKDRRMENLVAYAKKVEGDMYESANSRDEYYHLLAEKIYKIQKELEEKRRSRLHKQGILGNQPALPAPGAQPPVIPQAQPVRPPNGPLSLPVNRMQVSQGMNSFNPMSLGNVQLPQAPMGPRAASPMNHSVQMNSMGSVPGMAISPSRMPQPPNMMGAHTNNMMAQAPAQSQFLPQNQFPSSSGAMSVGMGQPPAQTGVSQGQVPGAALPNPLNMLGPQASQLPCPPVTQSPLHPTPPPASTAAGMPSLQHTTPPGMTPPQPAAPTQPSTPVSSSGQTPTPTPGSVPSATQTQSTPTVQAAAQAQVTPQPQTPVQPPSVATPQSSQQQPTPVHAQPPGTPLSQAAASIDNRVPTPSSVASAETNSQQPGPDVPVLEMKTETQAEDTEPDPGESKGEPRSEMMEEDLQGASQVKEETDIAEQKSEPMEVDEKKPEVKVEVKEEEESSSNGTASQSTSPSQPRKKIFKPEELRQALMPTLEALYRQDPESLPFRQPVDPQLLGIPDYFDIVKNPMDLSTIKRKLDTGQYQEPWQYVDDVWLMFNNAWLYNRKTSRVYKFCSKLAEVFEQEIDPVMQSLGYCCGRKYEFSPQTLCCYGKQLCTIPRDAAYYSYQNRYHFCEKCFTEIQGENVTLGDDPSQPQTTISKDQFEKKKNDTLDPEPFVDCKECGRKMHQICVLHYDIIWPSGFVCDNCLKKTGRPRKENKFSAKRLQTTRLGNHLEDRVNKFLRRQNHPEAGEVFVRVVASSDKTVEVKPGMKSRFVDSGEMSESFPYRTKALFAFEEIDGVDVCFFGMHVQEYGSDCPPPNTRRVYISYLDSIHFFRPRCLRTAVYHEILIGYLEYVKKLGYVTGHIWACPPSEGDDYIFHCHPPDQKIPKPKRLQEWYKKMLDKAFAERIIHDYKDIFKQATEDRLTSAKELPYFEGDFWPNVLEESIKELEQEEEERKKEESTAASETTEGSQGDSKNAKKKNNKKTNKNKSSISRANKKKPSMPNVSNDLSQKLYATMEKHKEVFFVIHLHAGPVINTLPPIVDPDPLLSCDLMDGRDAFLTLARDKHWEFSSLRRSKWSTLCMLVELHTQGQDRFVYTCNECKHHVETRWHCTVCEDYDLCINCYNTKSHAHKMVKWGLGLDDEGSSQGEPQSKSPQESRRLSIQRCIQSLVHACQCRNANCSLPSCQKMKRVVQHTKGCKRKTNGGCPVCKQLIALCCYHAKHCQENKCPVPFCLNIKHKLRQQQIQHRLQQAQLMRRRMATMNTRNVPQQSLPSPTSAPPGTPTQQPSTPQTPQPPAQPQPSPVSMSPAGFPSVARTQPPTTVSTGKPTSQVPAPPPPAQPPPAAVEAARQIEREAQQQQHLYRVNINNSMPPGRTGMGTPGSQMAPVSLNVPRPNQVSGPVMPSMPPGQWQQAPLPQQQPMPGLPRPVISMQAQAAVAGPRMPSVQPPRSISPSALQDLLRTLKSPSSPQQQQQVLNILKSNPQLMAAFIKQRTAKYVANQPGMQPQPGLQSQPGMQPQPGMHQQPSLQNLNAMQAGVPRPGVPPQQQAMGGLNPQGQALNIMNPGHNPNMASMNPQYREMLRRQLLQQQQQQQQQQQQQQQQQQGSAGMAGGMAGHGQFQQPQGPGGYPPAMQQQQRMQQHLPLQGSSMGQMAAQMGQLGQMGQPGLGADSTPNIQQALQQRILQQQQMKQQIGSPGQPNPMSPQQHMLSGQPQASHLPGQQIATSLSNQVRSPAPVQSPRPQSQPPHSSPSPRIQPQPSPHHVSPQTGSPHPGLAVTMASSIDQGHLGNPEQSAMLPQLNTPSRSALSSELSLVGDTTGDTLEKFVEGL
UniProt Q09472: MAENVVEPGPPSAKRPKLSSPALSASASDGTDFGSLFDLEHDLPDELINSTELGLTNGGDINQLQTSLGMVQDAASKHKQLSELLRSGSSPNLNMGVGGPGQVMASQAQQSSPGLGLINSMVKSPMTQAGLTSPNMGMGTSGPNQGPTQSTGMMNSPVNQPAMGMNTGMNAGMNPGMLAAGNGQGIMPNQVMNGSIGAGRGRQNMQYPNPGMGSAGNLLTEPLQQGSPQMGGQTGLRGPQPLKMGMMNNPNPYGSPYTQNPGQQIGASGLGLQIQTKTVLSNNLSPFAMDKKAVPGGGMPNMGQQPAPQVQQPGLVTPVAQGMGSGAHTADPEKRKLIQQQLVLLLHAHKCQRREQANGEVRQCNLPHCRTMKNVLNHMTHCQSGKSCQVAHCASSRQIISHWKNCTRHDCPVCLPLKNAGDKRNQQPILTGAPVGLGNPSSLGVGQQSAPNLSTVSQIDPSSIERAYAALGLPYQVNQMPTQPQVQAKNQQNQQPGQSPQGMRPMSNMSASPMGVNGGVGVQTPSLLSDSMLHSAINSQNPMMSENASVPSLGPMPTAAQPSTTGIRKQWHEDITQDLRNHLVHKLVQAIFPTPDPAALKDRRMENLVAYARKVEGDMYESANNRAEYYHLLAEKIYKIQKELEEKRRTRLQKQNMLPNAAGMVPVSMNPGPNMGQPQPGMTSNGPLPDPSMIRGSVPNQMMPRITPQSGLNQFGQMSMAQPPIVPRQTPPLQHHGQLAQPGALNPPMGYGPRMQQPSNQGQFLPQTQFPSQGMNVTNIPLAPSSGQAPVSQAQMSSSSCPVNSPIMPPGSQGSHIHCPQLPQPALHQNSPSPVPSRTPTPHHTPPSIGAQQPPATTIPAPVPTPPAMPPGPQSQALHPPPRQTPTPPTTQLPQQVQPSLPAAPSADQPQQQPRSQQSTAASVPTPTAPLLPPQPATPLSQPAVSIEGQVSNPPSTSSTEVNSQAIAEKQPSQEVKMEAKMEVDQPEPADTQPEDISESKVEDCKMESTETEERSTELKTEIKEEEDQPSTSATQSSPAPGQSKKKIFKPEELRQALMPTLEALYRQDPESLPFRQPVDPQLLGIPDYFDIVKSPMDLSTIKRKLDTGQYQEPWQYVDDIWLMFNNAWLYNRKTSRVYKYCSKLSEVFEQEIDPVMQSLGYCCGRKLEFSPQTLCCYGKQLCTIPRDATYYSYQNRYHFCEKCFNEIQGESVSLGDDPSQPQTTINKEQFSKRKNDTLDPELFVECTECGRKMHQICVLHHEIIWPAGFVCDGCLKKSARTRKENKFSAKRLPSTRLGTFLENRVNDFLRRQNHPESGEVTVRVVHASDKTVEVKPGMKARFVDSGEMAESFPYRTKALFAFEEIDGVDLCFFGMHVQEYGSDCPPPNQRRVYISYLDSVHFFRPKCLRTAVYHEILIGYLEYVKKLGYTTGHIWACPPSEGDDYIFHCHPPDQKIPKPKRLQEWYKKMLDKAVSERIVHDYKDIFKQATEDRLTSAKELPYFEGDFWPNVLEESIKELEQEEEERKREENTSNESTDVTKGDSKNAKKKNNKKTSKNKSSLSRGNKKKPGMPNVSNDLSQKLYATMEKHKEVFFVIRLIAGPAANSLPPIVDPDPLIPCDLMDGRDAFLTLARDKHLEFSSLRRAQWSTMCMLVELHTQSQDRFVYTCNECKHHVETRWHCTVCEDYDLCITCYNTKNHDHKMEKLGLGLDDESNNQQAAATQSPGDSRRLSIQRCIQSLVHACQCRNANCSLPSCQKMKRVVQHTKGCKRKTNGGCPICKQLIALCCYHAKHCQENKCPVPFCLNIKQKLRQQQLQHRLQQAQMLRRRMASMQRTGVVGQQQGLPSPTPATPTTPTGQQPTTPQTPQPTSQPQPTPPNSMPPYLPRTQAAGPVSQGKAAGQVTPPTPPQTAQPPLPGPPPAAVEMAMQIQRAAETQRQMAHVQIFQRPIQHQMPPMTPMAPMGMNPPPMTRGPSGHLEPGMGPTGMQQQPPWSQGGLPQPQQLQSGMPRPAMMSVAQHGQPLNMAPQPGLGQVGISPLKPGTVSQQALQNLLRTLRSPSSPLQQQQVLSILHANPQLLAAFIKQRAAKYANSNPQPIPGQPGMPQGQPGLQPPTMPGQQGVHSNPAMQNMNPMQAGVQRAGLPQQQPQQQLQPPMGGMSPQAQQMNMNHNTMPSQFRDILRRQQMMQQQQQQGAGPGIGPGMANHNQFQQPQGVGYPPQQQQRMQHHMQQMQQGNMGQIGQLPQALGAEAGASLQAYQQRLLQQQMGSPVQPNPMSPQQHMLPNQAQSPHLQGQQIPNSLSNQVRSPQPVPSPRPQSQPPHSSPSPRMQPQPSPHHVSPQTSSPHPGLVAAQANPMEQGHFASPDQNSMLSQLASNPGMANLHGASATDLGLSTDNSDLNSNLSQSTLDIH

CREB-binding protein (CBP) (from UniProt Q92793 1-2442)
binding [1]: binds

KAP1 (also known as TIF1β or TRIM28) (from UniProt Q13263 1-835)
binding [1]: binds

in vitro-translated, radiolabeled wild type (WT) full length LANA (from UniProt Q9QR71 1-1129)
binding [2]: binds

p300 (from UniProt Q09472 1-2414)
binding [1]: binds

poly-SUMO1 modified FLAG-KAP1 (wild type) (from UniProt Q13263 1-835; P63165 1-97) (complex)
binding [3]: no binding

Source: PMC3836728
